In publication PMC8483321:
No constants are given. Whether binding was seen depends on the method and setting. Binding seen in cells or lysates may run through a third protein. Some results given as binding are weak or reduced against the parent protein; the word gives no strength.

By UniProt entry, the sequences of proteins in these tests, tags left out. Where a name states a change or a piece, a line headed by the entry shows the natural chain unless it says otherwise. Chains listed by the source or under a name are the forms on record and can include a tag or linker. Residues count along the entry.
UniProt Q92560: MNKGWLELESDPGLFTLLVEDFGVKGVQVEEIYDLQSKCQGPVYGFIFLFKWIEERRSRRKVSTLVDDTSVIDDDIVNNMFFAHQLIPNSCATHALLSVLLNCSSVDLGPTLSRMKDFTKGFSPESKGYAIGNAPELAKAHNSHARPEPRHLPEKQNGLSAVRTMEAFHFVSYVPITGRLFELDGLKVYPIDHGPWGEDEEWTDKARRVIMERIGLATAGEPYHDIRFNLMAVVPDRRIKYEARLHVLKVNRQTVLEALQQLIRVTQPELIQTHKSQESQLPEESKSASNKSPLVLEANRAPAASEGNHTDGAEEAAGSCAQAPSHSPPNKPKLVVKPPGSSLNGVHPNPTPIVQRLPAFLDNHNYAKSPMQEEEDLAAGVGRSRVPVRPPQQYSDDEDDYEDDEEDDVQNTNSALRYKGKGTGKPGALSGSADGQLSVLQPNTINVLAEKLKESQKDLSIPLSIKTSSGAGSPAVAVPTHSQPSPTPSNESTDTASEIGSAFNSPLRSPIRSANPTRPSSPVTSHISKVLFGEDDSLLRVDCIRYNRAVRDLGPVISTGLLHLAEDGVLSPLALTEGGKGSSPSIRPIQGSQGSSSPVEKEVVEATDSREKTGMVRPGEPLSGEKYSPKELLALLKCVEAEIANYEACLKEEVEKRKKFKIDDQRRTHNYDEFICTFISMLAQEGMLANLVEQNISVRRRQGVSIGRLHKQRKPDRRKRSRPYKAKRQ
GFP-BAP1 SASRQ (Q92560, form named): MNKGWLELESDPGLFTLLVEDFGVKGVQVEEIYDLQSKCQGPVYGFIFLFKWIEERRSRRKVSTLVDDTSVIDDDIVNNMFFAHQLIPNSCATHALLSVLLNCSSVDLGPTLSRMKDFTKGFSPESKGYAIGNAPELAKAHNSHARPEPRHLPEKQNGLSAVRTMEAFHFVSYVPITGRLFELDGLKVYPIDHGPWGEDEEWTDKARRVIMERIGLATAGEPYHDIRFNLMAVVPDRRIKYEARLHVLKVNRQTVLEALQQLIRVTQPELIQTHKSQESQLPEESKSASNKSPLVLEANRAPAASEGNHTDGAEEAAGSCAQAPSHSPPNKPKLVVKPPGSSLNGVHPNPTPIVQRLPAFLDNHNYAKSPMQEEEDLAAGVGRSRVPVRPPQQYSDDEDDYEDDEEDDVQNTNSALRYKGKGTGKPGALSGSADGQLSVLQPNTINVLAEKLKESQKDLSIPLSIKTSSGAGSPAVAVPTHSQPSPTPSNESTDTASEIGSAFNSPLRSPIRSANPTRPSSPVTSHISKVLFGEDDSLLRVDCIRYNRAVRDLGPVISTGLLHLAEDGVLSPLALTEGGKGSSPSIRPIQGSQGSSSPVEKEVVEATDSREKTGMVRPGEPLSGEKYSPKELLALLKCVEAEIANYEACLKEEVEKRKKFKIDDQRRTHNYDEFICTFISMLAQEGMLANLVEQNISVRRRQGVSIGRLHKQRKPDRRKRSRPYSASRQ
UniProt O14579, residues 2-308: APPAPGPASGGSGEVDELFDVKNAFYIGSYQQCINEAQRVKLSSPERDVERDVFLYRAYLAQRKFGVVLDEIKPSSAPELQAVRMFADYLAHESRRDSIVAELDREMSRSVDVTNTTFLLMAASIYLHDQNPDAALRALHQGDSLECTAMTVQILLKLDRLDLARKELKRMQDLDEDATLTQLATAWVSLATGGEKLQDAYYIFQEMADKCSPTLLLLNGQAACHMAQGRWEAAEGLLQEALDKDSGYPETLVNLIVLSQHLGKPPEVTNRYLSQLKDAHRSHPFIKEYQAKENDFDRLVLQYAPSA

Assays:
[1] = molecular target: BAP1, endogenous (HeLa FRT) (human (endogenous in HeLa)) (UniProt Q92560); experiment: co-IP; endogenous BAP1 precipitated overnight at 4°C with different BAP1 antibodies (normal IgG as negative control), SureBeads Protein G Magnetic beads, ethidium bromide present, washes in WCE buffer; HeLa FRT wt cell lysate; immunoblot for COPA
[2] = molecular target: (N)GFP-FLAG-BAP1 fusion protein (BRCA1-associated protein 1, full-length) (UniProt Q92560); experiment: co-IP; GFP-Trap agarose beads, 20 min at 4°C with ethidium bromide, washes in WCE buffer; lysates of HeLa cells expressing GFP-BAP1 wt, GFP-BAP1 SASRQ or GFP-COPE; lysates supplemented with CAA or DTT as indicated (Fig 5B, C); mock or GFP immunoprecipitation; immunoblot
GFP-BAP1 SASRQ = GFP-BAP1 SASRQ (UniProt Q92560); experiment: as above
GFP-COPE = GFP-COPE (UniProt O14579); experiment: as above

- binding [1]: binds
- binding [2]: binds
- binding (GFP-BAP1 SASRQ): binds
- binding (GFP-COPE): binds
B1: COPA (protein, UniProt P53621 1-1224)
chain: MLTKFETKSARVKGLSFHPKRPWILTSLHNGVIQLWDYRMCTLIDKFDEHDGPVRGIDFHKQQPLFVSGGDDYKIKVWNYKLRRCLFTLLGHLDYIRTTFFHHEYPWILSASDDQTIRVWNWQSRTCVCVLTGHNHYVMCAQFHPTEDLVVSASLDQTVRVWDISGLRKKNLSPGAVESDVRGITGVDLFGTTDAVVKHVLEGHDRGVNWAAFHPTMPLIVSGADDRQVKIWRMNESKAWEVDTCRGHYNNVSCAVFHPRQELILSNSEDKSIRVWDMSKRTGVQTFRRDHDRFWVLAAHPNLNLFAAGHDGGMIVFKLERERPAYAVHGNMLHYVKDRFLRQLDFNSSKDVAVMQLRSGSKFPVFNMSYNPAENAVLLCTRASNLENSTYDLYTIPKDADSQNPDAPEGKRSSGLTAVWVARNRFAVLDRMHSLLIKNLKNEITKKVQVPNCDEIFYAGTGNLLLRDADSITLFDVQQKRTLASVKISKVKYVIWSADMSHVALLAKHAIVICNRKLDALCNIHENIRVKSGAWDESGVFIYTTSNHIKYAVTTGDHGIIRTLDLPIYVTRVKGNNVYCLDRECRPRVLTIDPTEFKFKLALINRKYDEVLHMVRNAKLVGQSIIAYLQKKGYPEVALHFVKDEKTRFSLALECGNIEIALEAAKALDDKNCWEKLGEVALLQGNHQIVEMCYQRTKNFDKLSFLYLITGNLEKLRKMMKIAEIRKDMSGHYQNALYLGDVSERVRILKNCGQKSLAYLTAATHGLDEEAESLKETFDPEKETIPDIDPNAKLLQPPAPIMPLDTNWPLLTVSKGFFEGTIASKGKGGALAADIDIDTVGTEGWGEDAELQLDEDGFVEATEGLGDDALGKGQEEGGGWDVEEDLELPPELDISPGAAGGAEDGFFVPPTKGTSPTQIWCNNSQLPVDHILAGSFETAMRLLHDQVGVIQFGPYKQLFLQTYARGRTTYQALPCLPSMYGYPNRNWKDAGLKNGVPAVGLKLNDLIQRLQLCYQLTTVGKFEEAVEKFRSILLSVPLLVVDNKQEIAEAQQLITICREYIVGLSVETERKKLPKETLEQQKRICEMAAYFTHSNLQPVHMILVLRTALNLFFKLKNFKTAATFARRLLELGPKPEVAQQTRKILSACEKNPTDAYQLNYDMHNPFDICAASYRPIYRGKPVEKCPLSGACYSPEFKGQICRVTTVTEIGKDVIGLRISPLQFR
